Assay results from paper PMC4876133.
No constants are given. Whether binding was seen depends on the method and setting. Binding seen in cells or lysates may run through a third protein. Some binding calls cover weakened binding; strength is not graded here.

Sequences of proteins named here, by UniProt entry; tags and fusion partners are left off.
UniProt Q5S006: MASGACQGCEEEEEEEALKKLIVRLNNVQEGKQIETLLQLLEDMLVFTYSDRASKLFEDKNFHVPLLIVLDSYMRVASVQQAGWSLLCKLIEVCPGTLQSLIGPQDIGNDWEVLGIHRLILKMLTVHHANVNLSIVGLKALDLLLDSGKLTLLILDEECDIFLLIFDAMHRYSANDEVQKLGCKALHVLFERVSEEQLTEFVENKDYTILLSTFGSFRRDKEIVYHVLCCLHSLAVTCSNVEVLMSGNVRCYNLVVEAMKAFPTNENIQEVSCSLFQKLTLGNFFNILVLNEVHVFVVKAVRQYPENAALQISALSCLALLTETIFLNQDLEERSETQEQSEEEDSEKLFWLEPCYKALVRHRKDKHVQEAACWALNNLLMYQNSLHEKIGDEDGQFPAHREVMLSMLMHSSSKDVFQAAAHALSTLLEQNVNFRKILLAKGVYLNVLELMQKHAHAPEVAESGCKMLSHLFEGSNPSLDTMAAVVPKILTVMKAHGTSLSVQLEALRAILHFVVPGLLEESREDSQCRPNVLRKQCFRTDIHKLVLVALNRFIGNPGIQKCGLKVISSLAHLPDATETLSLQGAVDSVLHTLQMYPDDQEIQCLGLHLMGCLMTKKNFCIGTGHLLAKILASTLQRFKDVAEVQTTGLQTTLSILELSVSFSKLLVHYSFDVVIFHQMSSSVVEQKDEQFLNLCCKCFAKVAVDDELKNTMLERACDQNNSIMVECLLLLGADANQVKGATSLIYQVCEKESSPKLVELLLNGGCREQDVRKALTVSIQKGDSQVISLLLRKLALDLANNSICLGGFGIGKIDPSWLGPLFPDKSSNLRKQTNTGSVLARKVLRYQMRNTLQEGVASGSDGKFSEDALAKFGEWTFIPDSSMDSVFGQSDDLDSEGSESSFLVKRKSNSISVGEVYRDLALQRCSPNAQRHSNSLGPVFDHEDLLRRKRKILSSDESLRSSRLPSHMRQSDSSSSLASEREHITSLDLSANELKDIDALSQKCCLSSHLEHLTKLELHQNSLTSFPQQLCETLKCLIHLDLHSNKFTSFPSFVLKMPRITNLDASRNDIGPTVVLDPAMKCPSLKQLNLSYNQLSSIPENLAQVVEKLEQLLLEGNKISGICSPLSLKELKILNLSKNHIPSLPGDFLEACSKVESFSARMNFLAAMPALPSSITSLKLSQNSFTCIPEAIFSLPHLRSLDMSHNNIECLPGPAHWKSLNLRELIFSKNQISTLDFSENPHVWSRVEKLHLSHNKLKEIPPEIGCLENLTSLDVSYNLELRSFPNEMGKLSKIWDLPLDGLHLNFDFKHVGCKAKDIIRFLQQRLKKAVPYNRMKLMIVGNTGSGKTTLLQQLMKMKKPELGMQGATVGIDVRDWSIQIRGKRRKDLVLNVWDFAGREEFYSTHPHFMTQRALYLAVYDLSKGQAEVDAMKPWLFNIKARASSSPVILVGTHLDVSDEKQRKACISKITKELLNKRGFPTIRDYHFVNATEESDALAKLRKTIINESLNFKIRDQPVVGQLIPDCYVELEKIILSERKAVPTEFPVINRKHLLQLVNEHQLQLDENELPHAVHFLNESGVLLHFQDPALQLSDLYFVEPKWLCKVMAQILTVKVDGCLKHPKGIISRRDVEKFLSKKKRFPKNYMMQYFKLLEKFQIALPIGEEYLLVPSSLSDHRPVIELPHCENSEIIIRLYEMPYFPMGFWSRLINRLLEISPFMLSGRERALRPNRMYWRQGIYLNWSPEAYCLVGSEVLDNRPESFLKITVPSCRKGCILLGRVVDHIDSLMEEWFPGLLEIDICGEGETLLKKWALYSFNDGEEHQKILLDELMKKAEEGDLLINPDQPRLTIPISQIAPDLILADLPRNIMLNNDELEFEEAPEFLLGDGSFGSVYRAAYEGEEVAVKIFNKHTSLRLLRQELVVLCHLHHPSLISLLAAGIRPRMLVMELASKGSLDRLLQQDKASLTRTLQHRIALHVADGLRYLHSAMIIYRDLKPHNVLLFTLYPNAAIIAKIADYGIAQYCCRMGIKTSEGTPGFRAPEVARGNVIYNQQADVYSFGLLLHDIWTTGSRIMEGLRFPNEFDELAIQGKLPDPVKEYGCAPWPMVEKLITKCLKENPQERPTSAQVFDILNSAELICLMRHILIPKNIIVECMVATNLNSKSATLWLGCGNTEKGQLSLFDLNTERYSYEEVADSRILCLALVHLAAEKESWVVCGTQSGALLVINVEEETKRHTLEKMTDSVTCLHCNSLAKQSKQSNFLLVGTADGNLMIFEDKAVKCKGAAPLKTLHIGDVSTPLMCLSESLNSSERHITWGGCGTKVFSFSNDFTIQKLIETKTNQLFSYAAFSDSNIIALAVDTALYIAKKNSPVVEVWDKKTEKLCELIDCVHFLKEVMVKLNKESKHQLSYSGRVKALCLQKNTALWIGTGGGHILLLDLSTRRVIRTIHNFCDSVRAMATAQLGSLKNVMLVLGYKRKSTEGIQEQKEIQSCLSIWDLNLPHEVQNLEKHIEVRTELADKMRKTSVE
UniProt P97445: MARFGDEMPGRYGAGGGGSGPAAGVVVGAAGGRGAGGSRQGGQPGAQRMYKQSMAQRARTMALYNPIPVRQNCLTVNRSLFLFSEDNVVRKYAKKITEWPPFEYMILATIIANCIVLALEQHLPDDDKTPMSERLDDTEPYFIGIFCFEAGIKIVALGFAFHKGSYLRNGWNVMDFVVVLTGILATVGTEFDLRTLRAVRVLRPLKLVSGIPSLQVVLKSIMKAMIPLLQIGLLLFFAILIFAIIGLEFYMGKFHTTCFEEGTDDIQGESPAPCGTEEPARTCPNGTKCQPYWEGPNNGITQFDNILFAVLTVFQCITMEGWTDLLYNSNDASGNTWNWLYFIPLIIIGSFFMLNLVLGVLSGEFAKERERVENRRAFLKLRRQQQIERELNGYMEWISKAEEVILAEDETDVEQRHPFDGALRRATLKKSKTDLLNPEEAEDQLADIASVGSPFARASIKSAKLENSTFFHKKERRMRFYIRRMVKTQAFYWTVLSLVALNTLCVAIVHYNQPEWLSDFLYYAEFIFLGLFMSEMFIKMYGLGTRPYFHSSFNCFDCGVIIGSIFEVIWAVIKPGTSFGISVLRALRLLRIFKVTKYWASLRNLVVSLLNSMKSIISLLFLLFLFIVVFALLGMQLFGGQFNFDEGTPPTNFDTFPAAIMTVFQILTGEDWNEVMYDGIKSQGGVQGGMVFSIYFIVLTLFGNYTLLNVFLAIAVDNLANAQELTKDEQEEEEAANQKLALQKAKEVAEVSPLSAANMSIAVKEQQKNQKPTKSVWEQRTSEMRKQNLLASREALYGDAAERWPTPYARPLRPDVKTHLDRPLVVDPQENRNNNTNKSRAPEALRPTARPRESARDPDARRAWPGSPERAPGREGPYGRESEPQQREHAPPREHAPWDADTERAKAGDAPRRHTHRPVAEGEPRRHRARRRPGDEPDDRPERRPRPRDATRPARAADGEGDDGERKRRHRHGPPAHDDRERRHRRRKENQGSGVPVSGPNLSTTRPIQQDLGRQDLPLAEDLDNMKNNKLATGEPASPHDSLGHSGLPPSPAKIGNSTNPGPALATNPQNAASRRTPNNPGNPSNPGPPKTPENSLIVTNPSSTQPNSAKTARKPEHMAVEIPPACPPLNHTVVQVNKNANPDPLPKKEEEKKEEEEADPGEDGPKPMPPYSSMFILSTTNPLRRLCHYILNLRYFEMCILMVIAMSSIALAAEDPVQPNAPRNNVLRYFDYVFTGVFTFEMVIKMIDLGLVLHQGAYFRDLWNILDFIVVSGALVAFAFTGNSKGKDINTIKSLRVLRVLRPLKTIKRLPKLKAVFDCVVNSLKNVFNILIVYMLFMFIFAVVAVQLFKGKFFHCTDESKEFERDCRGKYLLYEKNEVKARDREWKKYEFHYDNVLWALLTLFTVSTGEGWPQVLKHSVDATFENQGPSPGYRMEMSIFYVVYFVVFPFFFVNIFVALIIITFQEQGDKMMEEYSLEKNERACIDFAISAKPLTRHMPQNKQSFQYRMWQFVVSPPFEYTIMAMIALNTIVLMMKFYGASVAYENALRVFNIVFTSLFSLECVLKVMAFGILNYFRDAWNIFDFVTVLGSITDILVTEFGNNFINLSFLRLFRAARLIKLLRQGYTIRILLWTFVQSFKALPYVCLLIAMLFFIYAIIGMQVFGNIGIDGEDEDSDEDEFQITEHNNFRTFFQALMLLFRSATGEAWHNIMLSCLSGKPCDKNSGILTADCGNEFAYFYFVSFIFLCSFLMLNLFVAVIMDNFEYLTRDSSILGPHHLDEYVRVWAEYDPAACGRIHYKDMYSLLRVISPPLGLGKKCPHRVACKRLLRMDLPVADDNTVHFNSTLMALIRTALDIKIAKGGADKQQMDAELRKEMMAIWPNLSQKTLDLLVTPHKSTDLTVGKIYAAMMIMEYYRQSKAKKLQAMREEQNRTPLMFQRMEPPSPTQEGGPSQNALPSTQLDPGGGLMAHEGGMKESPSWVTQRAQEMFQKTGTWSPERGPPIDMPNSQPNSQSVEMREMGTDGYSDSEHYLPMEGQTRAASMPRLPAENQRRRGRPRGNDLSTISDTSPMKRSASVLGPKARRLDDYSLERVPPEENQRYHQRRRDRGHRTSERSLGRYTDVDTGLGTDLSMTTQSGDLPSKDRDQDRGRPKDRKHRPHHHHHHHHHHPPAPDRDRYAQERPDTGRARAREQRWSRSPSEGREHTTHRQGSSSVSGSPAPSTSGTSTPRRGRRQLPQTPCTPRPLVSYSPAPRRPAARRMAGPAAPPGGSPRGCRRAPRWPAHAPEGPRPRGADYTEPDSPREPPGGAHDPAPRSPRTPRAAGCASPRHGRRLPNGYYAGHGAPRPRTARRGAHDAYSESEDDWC
UniProt P54285: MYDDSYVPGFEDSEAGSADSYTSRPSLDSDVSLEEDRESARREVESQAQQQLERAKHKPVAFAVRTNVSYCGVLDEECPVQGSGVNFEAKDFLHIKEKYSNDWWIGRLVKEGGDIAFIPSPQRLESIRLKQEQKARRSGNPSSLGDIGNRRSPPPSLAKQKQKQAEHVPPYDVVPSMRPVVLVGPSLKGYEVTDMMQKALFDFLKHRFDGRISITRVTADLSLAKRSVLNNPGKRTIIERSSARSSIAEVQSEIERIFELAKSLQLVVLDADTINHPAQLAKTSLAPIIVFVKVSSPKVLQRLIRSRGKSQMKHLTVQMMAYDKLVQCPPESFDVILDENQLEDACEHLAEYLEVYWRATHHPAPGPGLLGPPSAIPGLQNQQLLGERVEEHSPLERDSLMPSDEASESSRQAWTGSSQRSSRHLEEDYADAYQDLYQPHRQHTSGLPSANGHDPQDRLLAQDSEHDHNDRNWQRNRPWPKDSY

Tests used:
[1] = target: G2019S LRRK2 from BAC hG2019S LRRK2 mice (human) (UniProt Q5S007); assay: co-IP; adult mouse forebrain (littermate wt or heterozygous BAC hG2019S) cross-linked with 0.8% formaldehyde for 2 h, lysed in 150 mM NaCl, 2 mM EDTA, 50 mM Tris-HCl, 1% NP-40, 0.25% sodium deoxycholate, pH 7.4; 1 mg protein with 3 ug rat anti-LRRK2 (clone 24D8) or rat IgG, protein G-Sepharose; western blot
[2] = target: leucine rich repeat kinase 2 (LRRK2), endogenous, wild-type mouse forebrain (mouse (endogenous in forebrain)) (UniProt Q5S006); assay: as above

Substance	binding [1]	binding [2]
CaV2.1 α1A subunit (from UniProt P97445 1-2368)	no binding	no binding
CaV channel β3 subunit (from UniProt P54285 1-484)	binds	binds
